# Measurements from paper PMC12311189.
# Chains of the proteins cited; added tags and fusions are not shown.
# UniProt Q92731: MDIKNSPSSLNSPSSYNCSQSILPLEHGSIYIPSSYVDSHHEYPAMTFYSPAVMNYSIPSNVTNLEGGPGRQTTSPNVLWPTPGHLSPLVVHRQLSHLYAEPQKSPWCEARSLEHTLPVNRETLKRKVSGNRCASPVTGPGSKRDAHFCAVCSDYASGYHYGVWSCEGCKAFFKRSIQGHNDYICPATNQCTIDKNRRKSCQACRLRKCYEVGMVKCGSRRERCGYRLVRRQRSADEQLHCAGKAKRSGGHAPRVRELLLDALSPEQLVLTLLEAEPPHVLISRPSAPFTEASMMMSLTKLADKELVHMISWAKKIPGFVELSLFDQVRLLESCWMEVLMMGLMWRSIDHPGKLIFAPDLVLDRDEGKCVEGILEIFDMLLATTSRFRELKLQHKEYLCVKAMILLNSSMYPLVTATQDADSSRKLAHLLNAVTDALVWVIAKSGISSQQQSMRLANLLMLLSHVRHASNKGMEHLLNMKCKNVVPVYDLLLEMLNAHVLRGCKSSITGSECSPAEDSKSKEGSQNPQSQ
# UniProt O95714: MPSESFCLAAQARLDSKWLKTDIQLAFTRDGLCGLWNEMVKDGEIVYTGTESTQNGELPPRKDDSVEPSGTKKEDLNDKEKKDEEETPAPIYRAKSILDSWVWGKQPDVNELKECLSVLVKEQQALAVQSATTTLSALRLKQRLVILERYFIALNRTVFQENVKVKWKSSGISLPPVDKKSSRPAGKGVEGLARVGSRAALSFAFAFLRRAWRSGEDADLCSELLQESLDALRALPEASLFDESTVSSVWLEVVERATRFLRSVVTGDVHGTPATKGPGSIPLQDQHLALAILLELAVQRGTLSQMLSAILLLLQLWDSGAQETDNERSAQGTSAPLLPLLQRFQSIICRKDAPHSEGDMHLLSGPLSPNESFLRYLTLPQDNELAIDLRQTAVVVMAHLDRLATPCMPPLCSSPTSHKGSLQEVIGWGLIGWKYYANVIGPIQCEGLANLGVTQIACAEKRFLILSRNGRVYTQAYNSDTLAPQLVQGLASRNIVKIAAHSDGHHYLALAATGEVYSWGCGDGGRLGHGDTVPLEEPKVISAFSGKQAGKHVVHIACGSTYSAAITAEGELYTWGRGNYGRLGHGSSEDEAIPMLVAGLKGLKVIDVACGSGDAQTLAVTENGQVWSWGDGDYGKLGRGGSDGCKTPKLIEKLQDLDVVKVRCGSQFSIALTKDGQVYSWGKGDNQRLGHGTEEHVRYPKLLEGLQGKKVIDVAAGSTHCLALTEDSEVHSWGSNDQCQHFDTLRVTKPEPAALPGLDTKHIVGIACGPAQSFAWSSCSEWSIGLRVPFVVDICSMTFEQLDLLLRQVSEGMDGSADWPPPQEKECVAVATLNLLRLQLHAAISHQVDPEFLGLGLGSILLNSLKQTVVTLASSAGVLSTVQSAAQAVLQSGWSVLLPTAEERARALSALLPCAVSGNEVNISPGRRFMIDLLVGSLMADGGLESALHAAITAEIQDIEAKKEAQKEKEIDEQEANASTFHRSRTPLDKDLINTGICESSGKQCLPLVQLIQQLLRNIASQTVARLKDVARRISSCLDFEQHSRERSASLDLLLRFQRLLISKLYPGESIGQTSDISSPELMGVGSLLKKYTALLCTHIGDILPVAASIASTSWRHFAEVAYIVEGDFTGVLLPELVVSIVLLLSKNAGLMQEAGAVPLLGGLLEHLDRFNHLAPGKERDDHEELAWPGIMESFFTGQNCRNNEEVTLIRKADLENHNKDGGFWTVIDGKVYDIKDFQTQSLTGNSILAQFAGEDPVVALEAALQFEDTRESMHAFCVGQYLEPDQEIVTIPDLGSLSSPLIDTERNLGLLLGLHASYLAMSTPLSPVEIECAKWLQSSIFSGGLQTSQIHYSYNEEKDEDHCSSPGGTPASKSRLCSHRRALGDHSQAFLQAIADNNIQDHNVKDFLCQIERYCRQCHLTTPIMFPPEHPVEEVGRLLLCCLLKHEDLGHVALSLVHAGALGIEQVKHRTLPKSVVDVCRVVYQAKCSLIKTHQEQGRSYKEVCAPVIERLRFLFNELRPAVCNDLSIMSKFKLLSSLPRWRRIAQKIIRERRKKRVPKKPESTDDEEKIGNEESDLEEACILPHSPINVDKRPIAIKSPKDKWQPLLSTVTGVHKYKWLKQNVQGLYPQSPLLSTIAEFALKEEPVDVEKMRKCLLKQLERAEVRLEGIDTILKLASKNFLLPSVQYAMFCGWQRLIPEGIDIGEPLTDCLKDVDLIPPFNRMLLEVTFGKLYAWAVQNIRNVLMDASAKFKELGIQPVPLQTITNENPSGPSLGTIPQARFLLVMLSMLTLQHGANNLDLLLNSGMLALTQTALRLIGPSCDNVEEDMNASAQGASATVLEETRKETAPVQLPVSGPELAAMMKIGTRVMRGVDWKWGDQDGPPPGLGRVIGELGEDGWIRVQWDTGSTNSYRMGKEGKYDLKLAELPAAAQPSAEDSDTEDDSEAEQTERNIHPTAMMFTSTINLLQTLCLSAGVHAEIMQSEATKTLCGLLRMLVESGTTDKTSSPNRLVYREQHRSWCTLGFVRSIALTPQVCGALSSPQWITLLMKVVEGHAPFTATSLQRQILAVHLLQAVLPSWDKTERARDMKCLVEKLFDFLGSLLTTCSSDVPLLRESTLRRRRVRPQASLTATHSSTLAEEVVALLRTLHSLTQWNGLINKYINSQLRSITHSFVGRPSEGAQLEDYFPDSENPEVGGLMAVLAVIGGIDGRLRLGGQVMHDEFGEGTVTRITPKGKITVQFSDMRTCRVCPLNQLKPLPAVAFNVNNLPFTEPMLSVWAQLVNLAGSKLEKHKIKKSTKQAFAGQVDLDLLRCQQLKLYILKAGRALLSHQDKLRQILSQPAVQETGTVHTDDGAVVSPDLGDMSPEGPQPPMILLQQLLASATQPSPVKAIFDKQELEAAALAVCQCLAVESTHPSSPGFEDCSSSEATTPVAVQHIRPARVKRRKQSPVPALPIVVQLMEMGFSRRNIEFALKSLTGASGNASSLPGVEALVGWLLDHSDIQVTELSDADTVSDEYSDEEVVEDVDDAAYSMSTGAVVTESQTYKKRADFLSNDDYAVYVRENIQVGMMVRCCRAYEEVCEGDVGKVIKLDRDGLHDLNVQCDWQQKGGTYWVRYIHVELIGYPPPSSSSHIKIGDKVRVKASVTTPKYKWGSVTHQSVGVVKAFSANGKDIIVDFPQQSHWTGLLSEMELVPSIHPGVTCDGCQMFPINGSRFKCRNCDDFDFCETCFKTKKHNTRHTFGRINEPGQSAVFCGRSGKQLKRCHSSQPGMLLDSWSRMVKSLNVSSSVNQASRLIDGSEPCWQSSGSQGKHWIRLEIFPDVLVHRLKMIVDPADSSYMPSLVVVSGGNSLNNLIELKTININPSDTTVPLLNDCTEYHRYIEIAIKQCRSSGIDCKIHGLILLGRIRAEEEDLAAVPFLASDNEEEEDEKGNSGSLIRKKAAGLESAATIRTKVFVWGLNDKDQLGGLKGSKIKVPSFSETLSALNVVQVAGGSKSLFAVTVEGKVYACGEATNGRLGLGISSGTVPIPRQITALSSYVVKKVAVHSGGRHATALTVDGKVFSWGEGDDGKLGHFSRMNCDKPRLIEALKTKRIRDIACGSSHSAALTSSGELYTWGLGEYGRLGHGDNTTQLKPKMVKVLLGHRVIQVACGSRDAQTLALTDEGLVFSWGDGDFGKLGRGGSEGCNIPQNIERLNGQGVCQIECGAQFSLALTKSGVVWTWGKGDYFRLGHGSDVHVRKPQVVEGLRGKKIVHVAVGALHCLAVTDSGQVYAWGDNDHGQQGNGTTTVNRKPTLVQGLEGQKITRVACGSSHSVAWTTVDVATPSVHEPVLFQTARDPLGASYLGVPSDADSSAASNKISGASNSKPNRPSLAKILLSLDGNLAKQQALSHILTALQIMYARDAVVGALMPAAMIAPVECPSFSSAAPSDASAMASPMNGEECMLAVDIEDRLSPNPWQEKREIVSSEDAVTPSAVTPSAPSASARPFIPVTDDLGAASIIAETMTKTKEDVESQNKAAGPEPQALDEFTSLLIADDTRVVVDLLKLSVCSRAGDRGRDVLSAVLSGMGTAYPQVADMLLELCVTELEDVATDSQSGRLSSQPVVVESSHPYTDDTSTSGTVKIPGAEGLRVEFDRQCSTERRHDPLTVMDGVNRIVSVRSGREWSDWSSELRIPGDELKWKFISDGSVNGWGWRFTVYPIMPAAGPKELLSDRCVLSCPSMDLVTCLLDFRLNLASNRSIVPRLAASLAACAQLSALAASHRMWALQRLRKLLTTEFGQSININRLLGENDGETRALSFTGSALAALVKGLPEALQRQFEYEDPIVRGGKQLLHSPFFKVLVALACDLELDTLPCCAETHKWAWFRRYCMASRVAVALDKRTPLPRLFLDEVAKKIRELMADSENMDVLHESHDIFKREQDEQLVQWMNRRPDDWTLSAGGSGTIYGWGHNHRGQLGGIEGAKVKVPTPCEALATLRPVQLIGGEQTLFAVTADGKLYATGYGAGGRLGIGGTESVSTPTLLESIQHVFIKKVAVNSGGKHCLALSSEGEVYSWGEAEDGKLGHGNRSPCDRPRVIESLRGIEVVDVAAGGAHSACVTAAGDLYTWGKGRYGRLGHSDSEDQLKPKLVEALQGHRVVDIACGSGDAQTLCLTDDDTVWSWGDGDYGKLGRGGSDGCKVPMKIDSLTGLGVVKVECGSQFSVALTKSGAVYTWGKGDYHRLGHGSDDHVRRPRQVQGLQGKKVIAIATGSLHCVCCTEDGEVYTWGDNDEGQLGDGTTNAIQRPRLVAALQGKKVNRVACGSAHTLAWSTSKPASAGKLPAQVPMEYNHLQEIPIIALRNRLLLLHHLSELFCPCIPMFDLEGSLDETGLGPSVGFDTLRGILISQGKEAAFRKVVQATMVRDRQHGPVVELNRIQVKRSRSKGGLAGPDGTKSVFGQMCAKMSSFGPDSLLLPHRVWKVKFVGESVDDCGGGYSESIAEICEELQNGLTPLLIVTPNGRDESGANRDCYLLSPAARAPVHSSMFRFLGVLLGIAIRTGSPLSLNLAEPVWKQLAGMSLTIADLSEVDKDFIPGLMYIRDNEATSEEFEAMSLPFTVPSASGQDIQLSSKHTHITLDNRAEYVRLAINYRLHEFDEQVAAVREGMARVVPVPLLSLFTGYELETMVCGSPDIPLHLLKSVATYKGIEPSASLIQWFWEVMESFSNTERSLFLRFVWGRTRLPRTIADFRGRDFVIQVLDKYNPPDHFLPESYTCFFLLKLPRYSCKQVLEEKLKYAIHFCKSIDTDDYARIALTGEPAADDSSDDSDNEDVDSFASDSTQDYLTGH
# UniProt Q9H765: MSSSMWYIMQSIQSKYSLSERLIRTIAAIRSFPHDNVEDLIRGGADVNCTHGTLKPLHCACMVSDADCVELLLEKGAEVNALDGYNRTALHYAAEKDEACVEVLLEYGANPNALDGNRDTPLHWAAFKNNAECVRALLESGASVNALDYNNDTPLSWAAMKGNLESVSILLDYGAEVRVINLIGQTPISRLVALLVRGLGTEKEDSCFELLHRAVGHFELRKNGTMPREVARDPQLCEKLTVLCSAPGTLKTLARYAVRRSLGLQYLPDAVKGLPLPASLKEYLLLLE
# Target: Flag-ERβ (estrogen receptor beta, from Flag-ESR2 plasmid) (UniProt Q92731)
# Assay: affinity purification with mass spectrometry; LC-MS/MS analysis of HEK293T cells transfected with Flag-ESR2 plasmids; Flag-ERβ as bait
row,binding,Substance
1,binds,"HERC2, endogenous (from UniProt O95714 1-4834)"
2,binds,"ASB8, endogenous (from UniProt Q9H765 1-288)"

# These are yes or no findings as the source states them, for the method shown. In cells and extracts the contact can be indirect. These calls come from enrichment with a bait or labelling near it, and not all partners need be listed.
